No constants are given. Whether binding was seen depends on the method and setting. Some binding calls cover weakened binding; strength is not graded here.
molecular target: T1, cynomolgus CD3 on cynomolgus PBMC (cynomolgus) (UniProt Q95LI5+Q95LI8+Q95LI7); assay: FACS on cynomolgus PBMC, PE goat anti-human IgG Fc secondary antibody, geometric mean fluorescence

Amino acid sequences for entries named in this document (tags omitted). A change or cut given only in a name is not applied to a line headed by its entry.
UniProt Q95LI5: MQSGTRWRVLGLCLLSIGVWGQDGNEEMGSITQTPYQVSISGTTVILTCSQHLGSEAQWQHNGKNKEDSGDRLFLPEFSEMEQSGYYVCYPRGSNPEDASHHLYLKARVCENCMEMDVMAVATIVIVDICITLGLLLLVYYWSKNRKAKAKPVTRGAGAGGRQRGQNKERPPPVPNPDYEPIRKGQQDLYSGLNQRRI
UniProt Q95LI8: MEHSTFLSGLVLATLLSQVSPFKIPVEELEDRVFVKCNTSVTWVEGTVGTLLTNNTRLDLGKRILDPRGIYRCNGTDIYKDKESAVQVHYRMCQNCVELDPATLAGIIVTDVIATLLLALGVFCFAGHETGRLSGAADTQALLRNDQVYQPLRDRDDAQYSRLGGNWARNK
UniProt Q95LI7: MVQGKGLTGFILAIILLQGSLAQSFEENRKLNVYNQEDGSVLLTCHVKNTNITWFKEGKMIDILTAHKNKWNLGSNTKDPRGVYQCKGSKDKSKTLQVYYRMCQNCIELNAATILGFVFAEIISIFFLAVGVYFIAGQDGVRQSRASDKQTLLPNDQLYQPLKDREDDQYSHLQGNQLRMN
UniProt P07766: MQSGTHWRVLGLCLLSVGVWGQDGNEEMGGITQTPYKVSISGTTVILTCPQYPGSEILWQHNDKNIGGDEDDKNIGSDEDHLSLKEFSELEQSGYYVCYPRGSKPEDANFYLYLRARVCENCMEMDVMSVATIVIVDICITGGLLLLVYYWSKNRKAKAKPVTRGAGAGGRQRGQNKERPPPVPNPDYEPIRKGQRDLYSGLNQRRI
UniProt P04234: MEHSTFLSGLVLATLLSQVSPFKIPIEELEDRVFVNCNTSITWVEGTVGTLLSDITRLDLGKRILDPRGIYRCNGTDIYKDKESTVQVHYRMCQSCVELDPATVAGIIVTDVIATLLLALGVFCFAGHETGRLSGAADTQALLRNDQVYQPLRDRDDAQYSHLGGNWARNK
UniProt P09693: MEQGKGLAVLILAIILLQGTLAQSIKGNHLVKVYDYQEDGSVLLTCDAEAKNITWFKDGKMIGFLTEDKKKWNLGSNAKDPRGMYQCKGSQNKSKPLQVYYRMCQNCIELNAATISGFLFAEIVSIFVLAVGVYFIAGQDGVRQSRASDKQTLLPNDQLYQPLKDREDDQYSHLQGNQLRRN

binding	Binder
binds	153A6B1 chimeric antibody (antibody, V domains shown) VH: QVQLKESGPGLVQPSQTLSLTCTVSGFSLTSYNIHWVRQPPGKGLEWMGRIRYNGDTSYNSALKSRLSISRDTSKNQVFLKMSSLQTDDTGTYYCTRGPYGGSREPLFDYWGQGVMVTVSS VL: DIKMTQSPSFLSAAVGDRVTINCKTSQNINKYLNWFQQKLGAAPKLLIYTTNNLQTGIPSRFSGSGSGTDFTLTISSLQPEDVATYFCLQHGSGYTFGAGTKLELK

molecular target: T2, human CD3 on cells (human PBMC; Jurkat-CD3-NFAT and TCR/CD3 Effector reporter cells) (human) (UniProt P07766+P04234+P09693); assay: FACS on human PBMC, PE goat anti-human IgG Fc secondary antibody, geometric mean fluorescence

binding	Binder
binds	153A6B1 chimeric antibody (antibody, V domains shown) VH: QVQLKESGPGLVQPSQTLSLTCTVSGFSLTSYNIHWVRQPPGKGLEWMGRIRYNGDTSYNSALKSRLSISRDTSKNQVFLKMSSLQTDDTGTYYCTRGPYGGSREPLFDYWGQGVMVTVSS VL: DIKMTQSPSFLSAAVGDRVTINCKTSQNINKYLNWFQQKLGAAPKLLIYTTNNLQTGIPSRFSGSGSGTDFTLTISSLQPEDVATYFCLQHGSGYTFGAGTKLELK

molecular target: human CD3 protein (human) (UniProt P07766+P04234); assay: ELISA

binding	Binder
binds	Hu192A7B9-6 (antibody, V domains shown) VH: EVQLQESGPGLVKPSETLSLTCTVSGFSLTSYNVHWVRQPPGKGLEWMGRMRYNGDTSYNSALKSRLTISRDTSKNQVSLKLSSVTAADTAVYYCTRGPRGGYYSALFDYWGQGTMVTVSS VL: DIQMTQSPSSLSASVGDRVTITCKASQNINRYLNWYQQKPGKAPKLLIYIANSLQTGVPSRFSGSGSGTDFTLTISSLQPEDFATYYCLQHNSWYTFGQGTKLEIK
binds	Hu192A7B9-9 (antibody, V domains shown) VH: EVQLQESGPGLVKPSETLSLTCTVSGGSISSYNVHWVRQPPGKGLEWMGRMRYNGDTSYNSALKSRLTISRDTSKNQFSLKLSSVTAADTAVYYCARGPRGGYYSALFDYWGQGTMVTVSS VL: DIQMTQSPSSLSASVGDRVTITCKASQNINRYLNWYQQKPGKAPKLLISIANSLQTGVPSRFSGSGSGTDFTLTISSLQPEDFATYYCLQHNSWYTFGQGTKLEIK
binds	Hu192A7B9-22 (antibody, V domains shown) VH: EVQLQESGPGLVKPSETLSLTCTVSGGSISSYNVHWVRQPPGKGLEWMGRMRYNGDTSYNSALKSRLTISRDTSKNQFSLKLSSVTAADTAVYYCTRGPRGGYYSALFDYWGQGTMVTVSS VL: DIQMTQSPSSLSASVGDRVTITCKASQNINRYLNWYQQKPGKAPKVLISIANSLQTGIPSRFSGSGSGTDFTLTISSLQPEDFATYFCLQHNSWYTFGQGTKLEIK
binds	Hu192A7B9-17 (antibody, V domains shown) VH: EVQLQESGPGLVKPSETLSLTCTVSGFSISSYNVHWVRQPPGKGLEWMGRMRYNGDTSYNSALKSRLTISRDTSKNQVSLKLSSVTAADTAVYYCTRGPRGGYYSALFDYWGQGTMVTVSS VL: DIQMTQSPSSLSASVGDRVTITCKASQNINRYLNWYQQKPGKAPKLLISIANSLQTGIPSRFSGSGSGTDFTLTISSLQPEDFATYYCLQHNSWYTFGQGTKLEIK
binds	Hu192A7B9-15 (antibody, V domains shown) VH: EVQLQESGPGLVKPSETLSLTCTVSGGSISSYNVHWVRQPPGKGLEWMGRMRYNGDTSYNSALKSRLTISRDTSKNQFSLKLSSVTAADTAVYYCARGPRGGYYSALFDYWGQGTMVTVSS VL: DIQMTQSPSSLSASVGDRVTITCKASQNINRYLNWYQQKPGKAPKLLISIANSLQTGIPSRFSGSGSGTDFTLTISSLQPEDFATYYCLQHNSWYTFGQGTKLEIK
binds	Hu192A7B9-12 (antibody, V domains shown) VH: EVQLQESGPGLVKPSETLSLTCTVSGFSLTSYNVHWVRQPPGKGLEWMGRMRYNGDTSYNSALKSRLTISRDTSKNQVSLKLSSVTAADTAVYYCTRGPRGGYYSALFDYWGQGTMVTVSS VL: DIQMTQSPSSLSASVGDRVTITCKASQNINRYLNWYQQKPGKAPKLLISIANSLQTGVPSRFSGSGSGTDFTLTISSLQPEDFATYYCLQHNSWYTFGQGTKLEIK
binds	Hu192A7B9-24 (antibody, V domains shown) VH: EVQLQESGPGLVKPSETLSLTCTVSGFSLTSYNVHWVRQPPGKGLEWMGRMRYNGDTSYNSALKSRLTISRDTSKNQVSLKLSSVTAADTAVYYCTRGPRGGYYSALFDYWGQGTMVTVSS VL: DIQMTQSPSSLSASVGDRVTITCKASQNINRYLNWYQQKPGKAPKVLISIANSLQTGIPSRFSGSGSGTDFTLTISSLQPEDFATYFCLQHNSWYTFGQGTKLEIK
binds	Hu192A7B9-23 (antibody, V domains shown) VH: EVQLQESGPGLVKPSETLSLTCTVSGFSISSYNVHWVRQPPGKGLEWMGRMRYNGDTSYNSALKSRLTISRDTSKNQVSLKLSSVTAADTAVYYCTRGPRGGYYSALFDYWGQGTMVTVSS VL: DIQMTQSPSSLSASVGDRVTITCKASQNINRYLNWYQQKPGKAPKVLISIANSLQTGIPSRFSGSGSGTDFTLTISSLQPEDFATYFCLQHNSWYTFGQGTKLEIK
binds	Hu192A7B9-13 (antibody, V domains shown) VH: EVQLQESGPGLVKPSETLSLTCTVSGGSISSYNVHWIRQPPGKGLEWIGRMRYNGDTSYNSALKSRVTISVDTSKNQFSLKLSSVTAADTAVYYCARGPRGGYYSALFDYWGQGTMVTVSS VL: DIQMTQSPSSLSASVGDRVTITCKASQNINRYLNWYQQKPGKAPKLLISIANSLQTGIPSRFSGSGSGTDFTLTISSLQPEDFATYYCLQHNSWYTFGQGTKLEIK
binds	Hu192A7B9-21 (antibody, V domains shown) VH: EVQLQESGPGLVKPSETLSLTCTVSGGSISSYNVHWVRQPPGKGLEWMGRMRYNGDTSYNSALKSRLTISRDTSKNQFSLKLSSVTAADTAVYYCARGPRGGYYSALFDYWGQGTMVTVSS VL: DIQMTQSPSSLSASVGDRVTITCKASQNINRYLNWYQQKPGKAPKVLISIANSLQTGIPSRFSGSGSGTDFTLTISSLQPEDFATYFCLQHNSWYTFGQGTKLEIK
binds	Hu192A7B9-8 (antibody, V domains shown) VH: EVQLQESGPGLVKPSETLSLTCTVSGGSISSYNVHWVRQPPGKGLEWIGRMRYNGDTSYNSALKSRVTISRDTSKNQFSLKLSSVTAADTAVYYCARGPRGGYYSALFDYWGQGTMVTVSS VL: DIQMTQSPSSLSASVGDRVTITCKASQNINRYLNWYQQKPGKAPKLLISIANSLQTGVPSRFSGSGSGTDFTLTISSLQPEDFATYYCLQHNSWYTFGQGTKLEIK
binds	Hu192A7B9-14 (antibody, V domains shown) VH: EVQLQESGPGLVKPSETLSLTCTVSGGSISSYNVHWVRQPPGKGLEWIGRMRYNGDTSYNSALKSRVTISRDTSKNQFSLKLSSVTAADTAVYYCARGPRGGYYSALFDYWGQGTMVTVSS VL: DIQMTQSPSSLSASVGDRVTITCKASQNINRYLNWYQQKPGKAPKLLISIANSLQTGIPSRFSGSGSGTDFTLTISSLQPEDFATYYCLQHNSWYTFGQGTKLEIK
binds	Hu192A7B9-20 (antibody, V domains shown) VH: EVQLQESGPGLVKPSETLSLTCTVSGGSISSYNVHWVRQPPGKGLEWIGRMRYNGDTSYNSALKSRVTISRDTSKNQFSLKLSSVTAADTAVYYCARGPRGGYYSALFDYWGQGTMVTVSS VL: DIQMTQSPSSLSASVGDRVTITCKASQNINRYLNWYQQKPGKAPKVLISIANSLQTGIPSRFSGSGSGTDFTLTISSLQPEDFATYFCLQHNSWYTFGQGTKLEIK
binds	Hu192A7B9-7 (antibody, V domains shown) VH: EVQLQESGPGLVKPSETLSLTCTVSGGSISSYNVHWIRQPPGKGLEWIGRMRYNGDTSYNSALKSRVTISVDTSKNQFSLKLSSVTAADTAVYYCARGPRGGYYSALFDYWGQGTMVTVSS VL: DIQMTQSPSSLSASVGDRVTITCKASQNINRYLNWYQQKPGKAPKLLISIANSLQTGVPSRFSGSGSGTDFTLTISSLQPEDFATYYCLQHNSWYTFGQGTKLEIK
binds	Hu192A7B9-10 (antibody, V domains shown) VH: EVQLQESGPGLVKPSETLSLTCTVSGGSISSYNVHWVRQPPGKGLEWMGRMRYNGDTSYNSALKSRLTISRDTSKNQFSLKLSSVTAADTAVYYCTRGPRGGYYSALFDYWGQGTMVTVSS VL: DIQMTQSPSSLSASVGDRVTITCKASQNINRYLNWYQQKPGKAPKLLISIANSLQTGVPSRFSGSGSGTDFTLTISSLQPEDFATYYCLQHNSWYTFGQGTKLEIK
binds	Hu192A7B9-16 (antibody, V domains shown) VH: EVQLQESGPGLVKPSETLSLTCTVSGGSISSYNVHWVRQPPGKGLEWMGRMRYNGDTSYNSALKSRLTISRDTSKNQFSLKLSSVTAADTAVYYCTRGPRGGYYSALFDYWGQGTMVTVSS VL: DIQMTQSPSSLSASVGDRVTITCKASQNINRYLNWYQQKPGKAPKLLISIANSLQTGIPSRFSGSGSGTDFTLTISSLQPEDFATYYCLQHNSWYTFGQGTKLEIK
binds	Hu192A7B9-19 (antibody, V domains shown) VH: EVQLQESGPGLVKPSETLSLTCTVSGGSISSYNVHWIRQPPGKGLEWIGRMRYNGDTSYNSALKSRVTISVDTSKNQFSLKLSSVTAADTAVYYCARGPRGGYYSALFDYWGQGTMVTVSS VL: DIQMTQSPSSLSASVGDRVTITCKASQNINRYLNWYQQKPGKAPKVLISIANSLQTGIPSRFSGSGSGTDFTLTISSLQPEDFATYFCLQHNSWYTFGQGTKLEIK
binds	Hu192A7B9-11 (antibody, V domains shown) VH: EVQLQESGPGLVKPSETLSLTCTVSGFSISSYNVHWVRQPPGKGLEWMGRMRYNGDTSYNSALKSRLTISRDTSKNQVSLKLSSVTAADTAVYYCTRGPRGGYYSALFDYWGQGTMVTVSS VL: DIQMTQSPSSLSASVGDRVTITCKASQNINRYLNWYQQKPGKAPKLLISIANSLQTGVPSRFSGSGSGTDFTLTISSLQPEDFATYYCLQHNSWYTFGQGTKLEIK
binds	Hu192A7B9-18 (antibody, V domains shown) VH: EVQLQESGPGLVKPSETLSLTCTVSGFSLTSYNVHWVRQPPGKGLEWMGRMRYNGDTSYNSALKSRLTISRDTSKNQVSLKLSSVTAADTAVYYCTRGPRGGYYSALFDYWGQGTMVTVSS VL: DIQMTQSPSSLSASVGDRVTITCKASQNINRYLNWYQQKPGKAPKLLISIANSLQTGIPSRFSGSGSGTDFTLTISSLQPEDFATYYCLQHNSWYTFGQGTKLEIK
binds	153A6B1 chimeric antibody (antibody, V domains shown) VH: QVQLKESGPGLVQPSQTLSLTCTVSGFSLTSYNIHWVRQPPGKGLEWMGRIRYNGDTSYNSALKSRLSISRDTSKNQVFLKMSSLQTDDTGTYYCTRGPYGGSREPLFDYWGQGVMVTVSS VL: DIKMTQSPSFLSAAVGDRVTINCKTSQNINKYLNWFQQKLGAAPKLLIYTTNNLQTGIPSRFSGSGSGTDFTLTISSLQPEDVATYFCLQHGSGYTFGAGTKLELK

molecular target: T2, human CD3 on cells (human PBMC; Jurkat-CD3-NFAT and TCR/CD3 Effector reporter cells) (human); assay: FACS on PBMC

binding	Binder
binds	153A6B1 chimeric antibody (antibody, V domains shown) VH: QVQLKESGPGLVQPSQTLSLTCTVSGFSLTSYNIHWVRQPPGKGLEWMGRIRYNGDTSYNSALKSRLSISRDTSKNQVFLKMSSLQTDDTGTYYCTRGPYGGSREPLFDYWGQGVMVTVSS VL: DIKMTQSPSFLSAAVGDRVTINCKTSQNINKYLNWFQQKLGAAPKLLIYTTNNLQTGIPSRFSGSGSGTDFTLTISSLQPEDVATYFCLQHGSGYTFGAGTKLELK

molecular target: T1, cynomolgus CD3 on cynomolgus PBMC (cynomolgus); assay: FACS on PBMC

binding	Binder
binds	153A6B1 chimeric antibody (antibody, V domains shown) VH: QVQLKESGPGLVQPSQTLSLTCTVSGFSLTSYNIHWVRQPPGKGLEWMGRIRYNGDTSYNSALKSRLSISRDTSKNQVFLKMSSLQTDDTGTYYCTRGPYGGSREPLFDYWGQGVMVTVSS VL: DIKMTQSPSFLSAAVGDRVTINCKTSQNINKYLNWFQQKLGAAPKLLIYTTNNLQTGIPSRFSGSGSGTDFTLTISSLQPEDVATYFCLQHGSGYTFGAGTKLELK
